This is an account of results in publication doi:10.1101/2025.06.08.658535.

Protein sequences, listed by entry. Tags and fused reporters are not part of them. Lines headed by an entry give the natural chain unless they say otherwise; changes in a name come on top.
UniProt Q96SW2: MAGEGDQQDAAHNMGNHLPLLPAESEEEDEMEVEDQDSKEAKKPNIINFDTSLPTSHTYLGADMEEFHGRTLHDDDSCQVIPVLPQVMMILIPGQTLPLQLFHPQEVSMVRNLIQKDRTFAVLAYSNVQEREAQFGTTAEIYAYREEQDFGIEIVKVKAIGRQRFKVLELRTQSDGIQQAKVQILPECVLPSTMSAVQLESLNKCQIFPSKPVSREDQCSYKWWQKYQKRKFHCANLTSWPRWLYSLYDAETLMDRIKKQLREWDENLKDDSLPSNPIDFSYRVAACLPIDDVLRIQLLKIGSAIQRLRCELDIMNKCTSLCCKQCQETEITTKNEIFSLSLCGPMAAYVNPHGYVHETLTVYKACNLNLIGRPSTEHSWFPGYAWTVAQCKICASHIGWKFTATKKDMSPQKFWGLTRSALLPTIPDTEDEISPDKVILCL

Like-named read-outs stand apart in the source and are kept apart here. Results are given in words; binding and its absence hold for the method and conditions named. In cells and extracts the contact can be indirect. Tags and fused reporters may be left off the sequences shown.

For experiment [1], the target named is HisCRBN/HisDDB1 purified protein (UniProt Q96SW2). Nature of the experiment: FRET or BRET. A general note: BRET reads energy transfer from a luciferase to a nearby fluorophore.
Experiment [2] has the same target. Briefly: FRET or BRET. This is another data set of the same source.

B1: nLuc-VAV1 full length R796A (protein, UniProt P15498 1-845)
chain: MELWRQCTHWLIQCRVLPPSHRVTWDGAQVCELAQALRDGVLLCQLLNNLLPHAINLREVNLRPQMSQFLCLKNIRTFLSTCCEKFGLKRSELFEAFDLFDVQDFGKVIYTLSALSWTPIAQNRGIMPFPTEEESVGDEDIYSGLSDQIDDTVEEDEDLYDCVENEEAEGDEIYEDLMRSEPVSMPPKMTEYDKRCCCLREIQQTEEKYTDTLGSIQQHFLKPLQRFLKPQDIEIIFINIEDLLRVHTHFLKEMKEALGTPGAANLYQVFIKYKERFLVYGRYCSQVESASKHLDRVAAAREDVQMKLEECSQRANNGRFTLRDLLMVPMQRVLKYHLLLQELVKHTQEAMEKENLRLALDAMRDLAQCVNEVKRDNETLRQITNFQLSIENLDQSLAHYGRPKIDGELKITSVERRSKMDRYAFLLDKALLICKRRGDSYDLKDFVNLHSFQVRDDSSGDRDNKKWSHMFLLIEDQGAQGYELFFKTRELKKKWMEQFEMAISNIYPENATANGHDFQMFSFEETTSCKACQMLLRGTFYQGYRCHRCRASAHKECLGRVPPCGRHGQDFPGTMKKDKLHRRAQDKKRNELGLPKMEVFQEYYGLPPPPGAIGPFLRLNPGDIVELTKAEAEQNWWEGRNTSTNEIGWFPCNRVKPYVHGPPQDLSVHLWYAGPMERAGAESILANRSDGTFLVRQRVKDAAEFAISIKYNVEVKHIKIMTAEGLYRITEKKAFRGLTELVEFYQQNSLKDCFKSLDTTLQFPFKEPEKRTISRPAVGSTKYFGTAKARYDFCAADRSELSLKEGDIIKILNKKGQQGWWRGEIYGRVGWFPANYVEEDYSEYC
Take B1: the binding entry in experiment [1] and in experiment [2] was “no binding” throughout.
